Here are results for six molecules from patent publication US20070054846A1, “Bcl-w structure and uses therefor” (priority 2002, published 2007).

The chains behind the UniProt entries cited, without tags or fusion partners. Where a name states a change or a piece, a line headed by the entry shows the natural chain unless it says otherwise. A line that says so, or that is headed by a name, gives the form on record, which may keep a tag or linker.
BimLΔC27 (O54918, form named): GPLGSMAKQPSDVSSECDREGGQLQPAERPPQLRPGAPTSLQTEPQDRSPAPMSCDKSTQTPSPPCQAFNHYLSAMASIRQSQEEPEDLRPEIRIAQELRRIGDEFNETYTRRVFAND
Bim (O54918, form named): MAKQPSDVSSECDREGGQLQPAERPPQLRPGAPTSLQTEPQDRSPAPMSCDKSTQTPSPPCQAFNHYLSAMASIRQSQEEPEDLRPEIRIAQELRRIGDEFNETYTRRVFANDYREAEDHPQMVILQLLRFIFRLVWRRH
BimLΔC27-L94A (O54918, form named): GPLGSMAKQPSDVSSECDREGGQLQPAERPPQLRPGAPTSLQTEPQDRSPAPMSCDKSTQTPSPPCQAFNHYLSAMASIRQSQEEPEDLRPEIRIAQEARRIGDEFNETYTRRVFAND
UniProt Q91ZE9: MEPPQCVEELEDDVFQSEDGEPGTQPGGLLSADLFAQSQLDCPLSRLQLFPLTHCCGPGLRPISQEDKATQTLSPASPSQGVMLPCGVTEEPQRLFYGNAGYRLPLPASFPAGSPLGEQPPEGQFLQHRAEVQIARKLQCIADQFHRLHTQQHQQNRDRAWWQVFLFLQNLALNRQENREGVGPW

No constants are given. Whether binding was seen depends on the method and setting. For some assays here: In cells and extracts the contact can be indirect. Some binding calls cover weakened binding; strength is not graded here. Sequences can lack the tags named with a protein.

Experiment [1] has as its target BimLΔC27 (mouse) (UniProt O54918). Nature of the experiment: GST pull-down.
Experiment [2] shares this target. Nature of the experiment: GST pull-down, Coomassie-stained SDS-PAGE.
The target of experiment [3] is Bmf (Mus musculus (Mouse)) (UniProt Q91ZE9). Nature of the experiment: FIGS. 3, 4 and not shown.
The target in another experiment is Bim (UniProt O54918). Nature of the experiment: FIGS. 3, 4 and not shown.
The target of experiment [4] is BimLΔC27-L94A (mouse) (UniProt O54918). Description: GST pull-down.
The target is the same in experiment [5]. Nature of the experiment: GST pull-down, Coomassie-stained SDS-PAGE.

B1: GST-Bcl-w (full-length) (protein, not shown: a dimerising Fc or GST; small tags and cut ends)
chain: MATPASAPDTRALVADFVGYKLRQKGYVCGAGPGEGPAADPLHQAMRAAGDEFETRFRRTFSDLAAQLHVTPGSAQQRFTQVSDELFQGGPNWGRLVAFFVFGAALCAESVNKEMEPLVGQVQEWMVAYLETRLADWIHSSGGWAEFTALYGDGALEEARRLREGNWASVRTVLTGAVALGALVTVGAFFASK
For B1, the binding entry with BimLΔC27 (mouse) [1] and with BimLΔC27 (mouse) [2] was “binds” in each case.

B2: FLAG Bcl-w (full-length, expressed in 293T cells) (protein, not shown: small tags and cut ends)
chain: B1 chain
For the molecule B2, the binding result (in experiment [3]; with Bim) was “binds” throughout.

B3: FLAG Bcl-wΔC23 (protein, not shown: small tags and cut ends)
chain: MATPASAPDTRALVADFVGYKLRQKGYVCGAGPGEGPAADPLHQAMRAAGDEFETRFRRTFSDLAAQLHVTPGSAQQRFTQVSDELFQGGPNWGRLVAFFVFGAALCAESVNKEMEPLVGQVQEWMVAYLETRLADWIHSSGGWAEFTALYGDGALEEARRLREGNWASV
On to B3, for which the binding result (in experiment [3]; with Bim) was “binds” each time.

B4: GST-Bcl-wΔC29 (protein, not shown: a dimerising Fc or GST; large carriers; small tags and cut ends)
chain: MATPASAPDTRALVADFVGYKLRQKGYVCGAGPGEGPAADPLHQAMRAAGDEFETRFRRTFSDLAAQLHVTPGSAQQRFTQVSDELFQGGPNWGRLVAFFVFGAALCAESVNKEMEPLVGQVQEWMVAYLETRLADWIHSSGGWAEFTALYGDGALEEARRLRE
As for B4, the binding entry in the experiment with BimLΔC27 (mouse) [1], in the experiment with BimLΔC27-L94A (mouse) [4], in the experiment with BimLΔC27 (mouse) [2] and in the experiment with BimLΔC27-L94A (mouse) [5] was “binds” in each case.

B5: FLAG Bcl-wΔC29 (protein, not shown: small tags and cut ends)
chain: B4 chain
Take B5: the binding result (in experiment [3]; with Bim) was “binds” in each case.

B6: FLAG Bcl-wΔC20 (protein, not shown: small tags and cut ends)
chain: MATPASAPDTRALVADFVGYKLRQKGYVCGAGPGEGPAADPLHQAMRAAGDEFETRFRRTFSDLAAQLHVTPGSAQQRFTQVSDELFQGGPNWGRLVAFFVFGAALCAESVNKEMEPLVGQVQEWMVAYLETRLADWIHSSGGWAEFTALYGDGALEEARRLREGNWASVRTV
In the case of B6, the binding result (in experiment [3]; in the experiment with Bim) was “binds” in each case.
